Binding data for two molecules are collected here from publication PMC11165011.

The chains behind the UniProt entries cited, without tags or fusion partners.
UniProt P52630: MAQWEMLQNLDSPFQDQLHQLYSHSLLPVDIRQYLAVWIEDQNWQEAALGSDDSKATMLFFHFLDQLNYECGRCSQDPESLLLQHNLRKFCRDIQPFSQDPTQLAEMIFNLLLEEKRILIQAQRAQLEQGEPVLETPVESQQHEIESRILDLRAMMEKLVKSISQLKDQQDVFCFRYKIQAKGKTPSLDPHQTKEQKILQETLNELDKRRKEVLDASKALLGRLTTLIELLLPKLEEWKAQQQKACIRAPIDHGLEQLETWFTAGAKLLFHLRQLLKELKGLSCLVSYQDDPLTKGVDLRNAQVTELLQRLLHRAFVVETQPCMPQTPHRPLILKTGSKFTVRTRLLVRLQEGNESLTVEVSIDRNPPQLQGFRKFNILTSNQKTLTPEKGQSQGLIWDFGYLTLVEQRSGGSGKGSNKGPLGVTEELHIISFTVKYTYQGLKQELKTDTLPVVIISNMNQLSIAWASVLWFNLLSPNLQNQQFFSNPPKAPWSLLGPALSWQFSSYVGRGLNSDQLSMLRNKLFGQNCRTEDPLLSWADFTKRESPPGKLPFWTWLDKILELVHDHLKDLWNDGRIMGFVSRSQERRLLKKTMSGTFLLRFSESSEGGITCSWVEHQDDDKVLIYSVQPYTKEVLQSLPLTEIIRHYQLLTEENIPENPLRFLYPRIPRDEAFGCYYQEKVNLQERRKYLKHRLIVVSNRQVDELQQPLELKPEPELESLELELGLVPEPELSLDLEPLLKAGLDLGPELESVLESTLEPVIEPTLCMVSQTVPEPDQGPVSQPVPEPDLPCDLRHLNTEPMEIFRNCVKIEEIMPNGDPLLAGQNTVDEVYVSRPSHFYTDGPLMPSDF
UniProt P42224: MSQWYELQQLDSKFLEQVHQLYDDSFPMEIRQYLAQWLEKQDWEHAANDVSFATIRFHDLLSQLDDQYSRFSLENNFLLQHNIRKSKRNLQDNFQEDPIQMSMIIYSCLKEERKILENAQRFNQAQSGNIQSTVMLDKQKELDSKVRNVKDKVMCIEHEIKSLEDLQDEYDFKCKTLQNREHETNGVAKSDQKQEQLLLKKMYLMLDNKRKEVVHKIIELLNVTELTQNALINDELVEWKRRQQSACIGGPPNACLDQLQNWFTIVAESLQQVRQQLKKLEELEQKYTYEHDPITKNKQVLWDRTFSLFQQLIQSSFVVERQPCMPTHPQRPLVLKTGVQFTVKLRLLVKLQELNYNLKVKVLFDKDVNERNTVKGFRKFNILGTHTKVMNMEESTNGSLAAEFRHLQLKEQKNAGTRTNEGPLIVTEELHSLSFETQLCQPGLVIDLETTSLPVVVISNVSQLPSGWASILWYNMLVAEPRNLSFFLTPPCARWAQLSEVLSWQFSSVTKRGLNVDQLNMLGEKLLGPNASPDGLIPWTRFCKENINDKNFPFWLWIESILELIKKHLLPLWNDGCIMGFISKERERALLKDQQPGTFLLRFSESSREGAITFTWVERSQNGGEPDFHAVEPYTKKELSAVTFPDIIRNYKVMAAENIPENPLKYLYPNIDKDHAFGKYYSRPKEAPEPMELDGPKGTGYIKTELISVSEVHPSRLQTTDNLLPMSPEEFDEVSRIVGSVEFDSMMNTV
UniProt P40763: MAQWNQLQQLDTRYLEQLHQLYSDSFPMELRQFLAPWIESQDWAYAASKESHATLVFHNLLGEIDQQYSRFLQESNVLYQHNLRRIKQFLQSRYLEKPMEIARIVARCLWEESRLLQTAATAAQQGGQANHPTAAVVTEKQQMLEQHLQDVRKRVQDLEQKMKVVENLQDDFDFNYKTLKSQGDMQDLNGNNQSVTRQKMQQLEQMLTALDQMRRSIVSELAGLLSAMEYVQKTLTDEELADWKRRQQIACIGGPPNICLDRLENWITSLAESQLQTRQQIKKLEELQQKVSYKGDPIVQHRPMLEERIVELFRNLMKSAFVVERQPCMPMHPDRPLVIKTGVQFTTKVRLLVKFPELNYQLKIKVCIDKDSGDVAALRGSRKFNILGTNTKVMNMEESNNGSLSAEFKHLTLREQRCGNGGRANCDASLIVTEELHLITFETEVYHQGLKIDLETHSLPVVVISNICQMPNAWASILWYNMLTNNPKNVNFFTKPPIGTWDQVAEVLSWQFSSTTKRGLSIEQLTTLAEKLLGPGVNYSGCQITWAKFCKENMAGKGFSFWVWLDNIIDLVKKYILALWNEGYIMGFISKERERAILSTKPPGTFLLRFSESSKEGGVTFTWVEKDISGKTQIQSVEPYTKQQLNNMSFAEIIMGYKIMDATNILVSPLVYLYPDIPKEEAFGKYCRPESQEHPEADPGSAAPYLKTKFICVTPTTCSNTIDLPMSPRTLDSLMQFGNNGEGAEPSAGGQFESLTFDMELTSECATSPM

Test [1] concerns the target STAT2, endogenous in HEK293T cells (human (endogenous in HEK293T)) (UniProt P52630). Kind of test: co-IP; HEK293T cells overexpressing HA-PRTN3; lysates precipitated with anti-STAT1, anti-STAT2 and anti-STAT5 antibodies; immunoblot. (In general: A western blot detects proteins with antibodies after separation by electrophoresis.)
The target of test [2] is STAT1, endogenous in HEK293T cells (human (endogenous in HEK293T)) (UniProt P42224). The description is as above.
Test [3] concerns the target Flag-tagged STAT3 (1-770) (human) (UniProt P40763). In words: co-IP; HEK293T cells co-transfected with Flag-STAT3 and HA-PRTN3; lysates precipitated with anti-Flag or anti-HA overnight at 4 °C, protein A/G agarose; immunoblot.
Test [4] deals with STAT3, endogenous in human primary CD34+ cells (human (endogenous in primary CD34+ cells)) (UniProt P40763). Kind of test: co-IP; lysates of human primary CD34+ cells from cord blood, endogenous proteins; anti-STAT3 or anti-PRTN3; immunoblot.

Results are given in words; binding and its absence hold for the method and conditions named. Binding seen in cells or lysates may run through a third protein. Some entries that bind do so weakly or less than the wild type. For some of these results: Sequences can lack the tags named with a protein.

B1: HA-tagged PRTN3 (Proteinase 3), full length (enzyme, UniProt P24158 28-248)
chain: IVGGHEAQPHSRPYMASLQMRGNPGSHFCGGTLIHPSFVLTAAHCLRDIPQRLVNVVLGAHNVRTQEPTQQHFSVAQVFLNNYDAENKLNDVLLIQLSSPANLSASVATVQLPQQDQPVPHGTQCLAMGWGRVGAHDPPAQVLQELNVTVVTFFCRPHNICTFVPRRKAGICFGDSGGPLICDGIIQGIDSFVIWGCATRLFPDFFTRVALYVDWIRSTLR
Regarding B1, the binding entry in test [1] is recorded as “no binding”; in test [2] it was “no binding”; in test [3], “binds”.

B2: PRTN3, endogenous in human primary CD34+ cells (enzyme, UniProt P24158 28-248)
chain: B1 chain
In the case of B2, the binding result in test [4] is on record as “binds”.
